Measurements: patent EP1310247A1 (priority 1997, dated 1999)

Amino acid sequences for entries named in this document (tags omitted).
UniProt P54833, whole entry: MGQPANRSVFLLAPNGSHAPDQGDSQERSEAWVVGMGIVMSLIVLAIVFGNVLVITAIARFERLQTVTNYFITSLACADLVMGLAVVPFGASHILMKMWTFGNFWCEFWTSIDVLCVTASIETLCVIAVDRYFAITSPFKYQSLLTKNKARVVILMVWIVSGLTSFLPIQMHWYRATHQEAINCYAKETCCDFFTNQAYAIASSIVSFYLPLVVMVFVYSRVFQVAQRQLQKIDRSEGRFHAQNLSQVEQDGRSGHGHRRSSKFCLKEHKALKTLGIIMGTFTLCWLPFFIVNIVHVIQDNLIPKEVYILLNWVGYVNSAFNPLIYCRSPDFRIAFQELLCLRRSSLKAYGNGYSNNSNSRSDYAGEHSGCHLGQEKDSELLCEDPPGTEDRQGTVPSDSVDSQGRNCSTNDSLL

Target: T1, β2-Receptor (Canis lupus familiaris, UniProt P54833)
T1 construct: Canine lung membranes (10 µg protein/100 µl) were incubated with ^125ICYP; from tissue; host or cells: dog lung membranes
Assay: Beta-2 binding, 125iodocyanopindolol (ICYP), canine lung membranes
Set-up: species or system mongrel dogs
Conditions: check for β1 binding with β1-selective antagonist

With CC(C)NCC(O)COc1ccc(CC(N)=O)cc1 (stereo not shown) [Atenolol, atenolol] the “displacement of ICYP from pulmonary membranes” value was “largely ineffective in displacing ICYP”.
